Measured values: PubChem BioAssay AID488899 (Broad Institute, 2010)
Screen size: about 330,000 compounds; about 2,800 (0.85%) were called active. The shares of active, inactive and inconclusive entries below differ from those in the screen.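 The calls were made as follows: active = mean inhibition across replicates of 60% or more, whatever share of single replicates reaches that level; inconclusive = some that reach 60%, reason not given; inactive = mean inhibition across replicates below 60%.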

experiment: inhibitors of MITF-dependent TRPM1 promoter reporter, primary screen, cell-based, SK-MEL-5, single point, luciferase (AID 488899); settings: SK-MEL-5 TRPM1 promoter luciferase, 24 h; at 12.5 µM; active compounds read high

inhibition, inactive:
O=C(Cc1nn[nH]n1)NCc1ccccc1Cl -0.93%, COc1ccc(S(=O)(=O)N2CCC(C(=O)Oc3cccc(C)c3)CC2)cc1OC 7.12%, O=c1oc2ccc(Br)cc2cc1-c1nc2ccccc2o1 -1.24%, COc1ccc(-c2nc(N)ncc2Oc2ccccc2Br)c(O)c1 -16.6%, COc1ccc(/C=C/C(=O)C(C(N)=O)=C2SCCS2)cc1 -38.1%, COc1ccc(S(=O)(=O)Nc2ccc(C)c(S(=O)(=O)N3CCOCC3)c2)cc1[N+](=O)[O-] -4.29%, Cc1ccc(NC(=O)c2ccc(S(=O)(=O)N3CCCCC3)cc2)nc1 -9.15%, COC(=O)CCN(C(=O)C12CC3CC(CC(C3)C1)C2)c1ccccn1 4.9%, CCc1cc(-c2[nH]ncc2-c2ccc3c(c2)OCO3)c(O)cc1O 10.1%, Cc1ccccc1NC1=NC(C)(C)N=C(N)N1 -3.43%, COc1cccc(OC)c1C(=O)Nc1ccnn1C 0.415%, COc1ccc(NC(=O)CNC(=O)Cc2cccc3ccccc23)c(OC)c1 -5.81%, CCOc1ccc(S(=O)(=O)N2CCN(CN3C(=O)CC4(CCCC4)C3=O)CC2)cc1 -6.43%, COc1cccc(/C=C2\C(=O)C(=O)c3ccccc32)c1 17.3%

inhibition, active:
O=C(CN1C(=O)c2ccccc2S1(=O)=O)N1CCc2ccccc21 74.1%, CC1CC2(C)Oc3ccccc3CC2C(C)C1CNCCCN(C)C (stereo not drawn) 97.2%, C#CCOCCOCCOCCNc1nc(N2CCN(C(=O)CCCCCCCCCCNC(=O)[C@@H](CCSC)n3cc(CCO)nn3)CC2)nc(N2CCN(C(=O)CCCCCCCCCCNC(=O)[C@H](CCCN=C(N)N)n3cc(C[C@@H](C)CC)nn3)CC2)n1 68.7%, Cc1ccc(-n2c(Cl)c(Cl)nc(Cl)c2=O)cc1 94.9%, N=c1n(CC(=O)c2ccc(Br)s2)c2ccccc2n1Cc1ccccc1 89.6%, Cc1ccc(NC(=O)c2ccc([N+](=O)[O-])o2)cc1S(=O)(=O)N1CCOCC1 83.8%

inhibition, inconclusive:
Cc1ccsc1/C=N/Nc1ccc(C(=O)O)cc1 63.6%, CN(C)CCCN=Cc1c(-c2ccccc2)[nH]n(-c2nc3ccccc3s2)c1=O 60.4%, CC(C)C[C@H]1CN=C(Nc2ccccc2)N1CC1CCC(C(C)(C)C)CC1 (stereo partly drawn) 67.3%, CCOC(=O)c1c(CSC(=N)N)n(-c2ccc(C)cc2)c2cc(Br)c(OC(C)=O)cc12 68.4%, CN(C)c1ccc(N=Nc2nc3ccccc3n2C)cc1 60.6%, O=C(N/N=C/c1ccc([N+](=O)[O-])s1)c1ccncc1 60.6%, CCOC(=O)c1ccc2c(c1)n(CC)c(/C=C/N(C)c1ccccc1)[n+]2CC 60.8%, N#Cc1ccc(NC(=O)Nc2ccc(Oc3ccc(NC(=O)Nc4ccc(C#N)cc4)cc3)cc2)cc1 66.9%, COc1ccc(-n2c(=S)[nH]c3cc(C(=O)Nc4ccc(F)cc4)ccc3c2=O)c(OC)c1 67.6%, CC(C)(C)NC(=O)CCN(/N=C/c1ccc([N+](=O)[O-])o1)C1=NS(=O)(=O)c2ccccc21 64%, Cc1ccc(C)c(Cn2c3ccccc3c3cnn(CC(=O)NCCCN4CCCCC4)c(=O)c32)c1 60.2%, Cc1ccc2cc(C#N)c(NCCNC(=S)NCCCN(C)C)nc2c1C 60.6%, N#Cc1cccc(NC(=O)COC(=O)c2ccccc2C(=O)c2ccc(Cl)c([N+](=O)[O-])c2)c1 60.8%, CCN(CC)S(=O)(=O)c1ccc(N/N=C/c2cc(OC)ccc2O)nc1 61.1%, Cc1nc(NC(=O)/C=C/c2ccccc2)n[nH]1 60.6%, COc1ccc(Cn2c(C)nc3c(c2=O)c2nc4ccccc4nc2n3Cc2ccco2)cc1 66.7%, CCOC(=O)C1=C(C)NC2=C(C(=O)CC(c3cccs3)C2)C1c1cccs1 (stereo not drawn) 60.2%, CN1/C(=C\C(=O)C[n+]2ccc3ccccc3c2)C(C)(C)c2ccccc21 60.5%, CC(C)Cc1nc2oc3c(Cl)ncnc3c2c2c1CCC2 60.1%, Cc1cc(F)ccc1S(=O)(=O)Nc1ccccc1C(=O)Nc1ccccc1-c1nc2ccccc2[nH]1 68.1%, O=c1nc(N/N=C/c2ccccn2)cn[nH]1 61.7%, CCc1ccc(-c2cc3c(=O)n(CC(=O)NCCCN4CCN(Cc5ccccc5)CC4)nc(C)n3n2)cc1 63.9%, CCOc1ccc2nc3cc(NCc4ccc(OC)cc4)ccc3c(N)c2c1 63.6%, C#CCOCCOCCOCCNc1nc(N2CCN(C(=O)CCCCCCCCCCNC(=O)Cn3cc(C[C@@H](C)O)nn3)CC2)nc(N2CCN(C(=O)CCCCCCCCCCNC(=O)[C@H](CCCN=C(N)N)n3cc(C[C@@H](C)CC)nn3)CC2)n1 60.3%, CCN1CCN(/C=N/c2nc3c(s2)CCCC3)CC1 60.3%, CN(C)CCCNc1c2ccccc2nc2ccccc12 63.9%, CC(=O)NC(c1ccc(C(C)C)cc1)c1ccc2cccnc2c1O (stereo not drawn) 61.2%, COc1cccc(-c2nnc3n2N=C(C(C)(C)C)CS3)c1 60.7%, Cc1cc(C)n(CCC(=O)N/N=C/c2c(O)ccc3ccccc23)n1 60.4%, Cc1ccc2nc(N(CCCN(C)C)C(=O)c3ccc4c(c3)CCCC4)sc2c1 65.8%, O=C(N/N=C/c1c[nH]c2ccccc12)c1[nH]c2ccc(Br)cc2c1-c1ccccc1 61.7%, CCOC(=O)c1c(NC(=O)C(=O)N/N=C/c2ccccc2O)sc2c1CCCCC2 60.9%, OCc1ccc(O)c2ncccc12 60.6%
